In PubChem BioAssay AID485314 (National Center for Advancing Translational Sciences (NCATS), 2010):
Hit rate of the full screen: of about 340,000 compounds, about 4,500 (1.3%) were called active. This list was built around the results that the source calls inconclusive (neither active nor inactive); the mix of calls is not that of the screen. Calls follow the shape of the dose curve; as a rule, active = well fitted inhibition curve with a large enough effect; inconclusive = small, poorly fitted or top-dose-only effect, or another doubt; inactive = no such curve, though single readings can be large or run the other way. Potencies of inconclusive entries are doubtful fits and often do not repeat.

target: DNA polymerase beta (Homo sapiens) (UniProt P06746); experiment: qHTS Assay for Inhibitors of DNA Polymerase Beta; details: Pol beta primer extension/strand displacement, fluorescence kinetic; activity change, negative = inhibition: at 114 µM (top of the series)
How it was run: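 Human Pol beta at 10 nM; strand-displacement substrate 50 nM final. Compound exposure 15 min at room temperature before start, reaction 10 min at room temperature.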
% is scaled to controls: 0 for no effect and ±100 for the full control effect; potency is read from the fitted curve at half-maximal effect.

Potency, active:
OCCCNc1c2ccccc2nc2ccccc12 17.8 µM, CCOc1ccc(C(=O)c2cn(CC(=O)Nc3cc(OC)cc(OC)c3)c3ccc(F)cc3c2=O)cc1 14.1 µM, Cc1cc(C)n2c(SC/C(O)=C(\C#N)c3nc4ccccc4[nH]3)nnc2n1 17.8 µM, Cn1nc(-c2ccc(Cl)cc2)c2cc(C(=O)NCCCN3CCCC3)sc21 50.1 µM, COc1cc(/C=C2\SC(=O)N(c3ccc(Cl)cc3)C2=O)cc([N+](=O)[O-])c1O 56.2 µM, O=C(OCc1cc(=O)n2c(n1)sc1ccccc12)c1cccc(O)c1 22.4 µM, Cc1ccc(NC(=O)CSc2nc(-c3ccco3)nc3cc(=O)[nH]n23)c(Cl)c1 50.1 µM, O=C(NCCc1ccccc1)c1ccc2nc(-c3ccco3)c(-c3ccco3)nc2c1 7.94 µM

Potency, inactive:
COc1ccc(S(=O)(=O)NC2(C(F)(F)F)NC(=O)N(CCc3ccccc3)C2=O)cc1 (centres undefined)

Potency, inconclusive:
COc1ccc(-n2nc3c(N4CCC(C(=O)NCCc5ccco5)CC4)nnc(C)c3c2C)cc1 89.1 µM [inhibitor, single point], Oc1ccc(/C=N/NC(=S)Nc2cccnc2)cc1O 2.82 µM [inhibitor, full curve, poor fit], CCOc1cccc(C2C(C#N)=C(N)Oc3cc(C)[nH]c(=O)c32)c1OCC (centres undefined) 100 µM [inhibitor, single point], Cc1occc1-c1nnc(SCC(=O)NCc2ccco2)n1CC(C)C 28.2 µM [inhibitor, full curve], CCCC(=O)Nc1cccc(-c2nc3ccccc3c(=O)o2)c1 0.562 µM [inhibitor, full curve], Cc1ccc(NC(=O)CSc2nc(-c3ccc(F)cc3)cc(C(F)(F)F)c2C#N)cc1 89.1 µM [inhibitor, single point], O=C(CNC(=O)c1ccco1)N/N=C/c1cccs1 15.8 µM [inhibitor, partial curve], O=C(COC(=O)CSc1cccc2cccc(Cl)c12)Nc1ncc(C(F)(F)F)cc1Cl 28.2 µM [inhibitor, full curve], COc1ccc(Br)cc1/C=N/N1CCN(Cc2ccccc2)CC1 63.1 µM [inhibitor, single point], C=CCOc1ccc2c(c1)c(=O)cc(C(=O)O)n2CC 79.4 µM [inhibitor, single point], CCOC(=O)c1sc(NC(=O)CSc2nc(C)cc(-c3ccccc3)n2)c(C#N)c1C 10 µM [inhibitor, partial curve], CC(C)c1ccc(C(=O)N2CCN(CCO)CC2)cc1 39.8 µM [inhibitor, single point], CCOc1cccc(-c2c(C(=O)N/N=C/c3cccs3)nnn2-c2nonc2N)c1 7.94 µM [inhibitor, full curve, poor fit], Cc1cccn2cc(-c3cccc(NS(=O)(=O)c4ccc(Cl)c(Cl)c4)c3)nc12 3.55 µM [inhibitor, full curve, poor fit], COc1ccccc1CNC(=O)Cn1c(=O)oc2cc(S(=O)(=O)N3CCC(C)CC3)ccc21 89.1 µM [inhibitor, single point], O=C(NNC(=O)c1ccccc1F)c1ccc2nc[nH]c2c1 50.1 µM [inhibitor, partial curve], COc1ccc(Cl)cc1NC(=O)CN1CCc2ccccc2C1 79.4 µM [inhibitor, single point], CC1SCC(=O)N(CC(=O)NC2CCCCC2)C1=O (centres undefined) 28.2 µM [inhibitor, single point], CCN(C(=O)c1cnc(NC(C)C)cc1C(F)(F)F)c1ccc(Cl)cc1Cl 89.1 µM [inhibitor, single point], O=C(c1cc([N+](=O)[O-])ccc1Cl)N1CCN(Cc2ccc3c(c2)OCO3)CC1 50.1 µM [inhibitor, partial curve], Cc1csc(NC(=O)CS(=O)(=O)c2ccccc2)n1 89.1 µM [inhibitor, single point], Cn1c2c(c(=O)[nH]c1=O)C(c1ccc(O)cc1)C1=C(N2)c2ccccc2C1=O (centres undefined) 0.158 µM [inhibitor, full curve, poor fit], O=C(/C=C/c1ccc(Cl)c([N+](=O)[O-])c1)Nc1cccnc1 44.7 µM [inhibitor, partial curve], CC1CC(C)CN(S(=O)(=O)c2ccccc2[N+](=O)[O-])C1 (centres undefined) 79.4 µM [inhibitor, single point], O=C(C1=C[C@H](c2ccc(C(F)(F)F)cc2)C[C@H](OCc2ccc(CO)cc2)O1)N1CCN(Cc2ccc3c(c2)OCO3)CC1 50.1 µM [inhibitor, partial curve], Cc1csc(NC(=O)Cc2c(F)cccc2Cl)n1 89.1 µM [inhibitor, single point], Nc1nnn(CC(=O)N/N=C/c2cccc(Cl)c2)n1 7.94 µM [inhibitor, full curve], CC(CCc1ccccc1)NC(=O)CN1CCN(c2ccc(O)cc2)CC1 (centres undefined) 44.7 µM [inhibitor, partial curve], Cc1cc(C)c(S(=O)(=O)NCc2ccc3c(c2)cc(C)n3C)c(C)c1 79.4 µM [inhibitor, single point], COC(=O)c1c(NC(=S)Nc2ccc(CC(=O)O)cc2)sc(C)c1C 89.1 µM [inhibitor, single point], Cc1ccc(C(=O)Nc2cccc(C(F)(F)F)c2)cc1Nc1ccccn1 89.1 µM [inhibitor, single point], CCOc1cccc(C2c3c(oc4cc(C)c(C)cc4c3=O)C(=O)N2c2nc(C)c(C)s2)c1 (centres undefined) 22.4 µM [inhibitor, partial curve, poor fit], N#C/C(=C\c1ccc(O)c(O)c1)S(=O)(=O)c1ccccc1 50.1 µM [inhibitor, partial curve], O=C1CC(N2CCN(c3nc4ccccc4s3)CC2)C(=O)N1Cc1cccs1 (centres undefined) 89.1 µM [inhibitor, single point], N=C1C(c2nc3ccccc3s2)=C(O)CN1NC(=O)c1ccccc1[N+](=O)[O-] 8.91 µM [inhibitor, partial curve, poor fit], CCc1ccccc1Nc1nc2ccccc2n1C(C)C 7.94 µM [inhibitor, full curve, poor fit], Cc1ccc(S(=O)(=O)NN2C(=O)/C(=C/c3cccn3C)SC2=S)cc1 70.8 µM [inhibitor, single point], COc1ccc(-n2c(SCC(=O)Nc3ccc4c(c3)OCO4)nc3c(c2=O)SCC3)cc1 3.55 µM [inhibitor, full curve, poor fit]

Activity change, negative = inhibition, inconclusive:
NC(=O)c1ccc(NC(=O)CSc2nnc(-c3ccncc3)n2Cc2ccco2)cc1 -38.4% [inhibitor]

Activity change, negative = inhibition, inactive:
CN1/C(=C\C(=O)CSc2nnc(N)s2)C(C)(C)c2ccccc21 26.9%, COC(=O)CNC(=O)c1cn(-c2ccc(C)c(C)c2)c(=O)c2ccccc12 1.31%, COCCCNC(=O)CSc1nc(-c2cccc(F)c2)[nH]c1-c1ccccc1 -0.341%, N#C/C(=C\c1ccc(Cl)cc1)C(=O)NCC1CCCO1 (centres undefined) 4.52%, O=c1cc(C(F)F)oc2c1ccc1ccccc12 12.9%, CCc1ccc2occ(CC(=O)Nc3c(C(=O)Nc4ccc(OC)cc4)oc4ccccc34)c2c1 -26.9%, CC(CNC(=O)Cn1ccc2cc(S(=O)(=O)N3CCCCC3)ccc21)c1ccccc1 (centres undefined) 9.14%, Cc1nnc(C)n1/N=C/c1cc(Br)ccc1O 32.5%, CCOc1ccc(NC(=O)Cc2coc3ccc(C)cc23)cc1 27.7%, Cc1ccc2nc(Cl)c3cc(C(=O)N(C)C4CCCCC4)sc3c2c1 0.572%, CCOc1ccc(-n2c(=O)c3c4c(sc3n(Cc3cccc(Cl)c3)c2=O)CCCC4)cc1 26.2%, CN(C)C(=O)c1ccc(S(=O)(=O)NCc2ccccc2Cl)s1 -8.12%, O=C(CCSCc1ccccc1F)N1CCN(c2ccc(F)cc2)CC1 17%, O=C(C1CCC1)N1CCN(c2ccccc2)CC1 12.2%, O=c1c2oc3ccccc3c2n(Cc2ccccc2F)c(=O)n1Cc1ccco1 22.9%, Cc1cccc(N2CCN(C(=O)Nc3ccc(F)cc3)CC2C)c1 (centres undefined) 24.9%, O=C(NC(=S)Nc1ccc(Cl)cc1)c1ccccc1 27.8%, Cc1ccccc1NC(=S)N1CCN(Cc2ccc3c(c2)OCO3)CC1 20%, COCCn1c(SCC(=O)Nc2cc(C(C)(C)C)nn2-c2ccccc2)nnc1-c1ccncc1 -0.437%, COc1cccc(NC(=O)N2CCC(CN3CCOCC3)CC2)c1 -13.2%, Cc1ccc(CSc2nnc3c(n2)OC2(Nc4ccccc4-3)C(=O)Nc3ccc(F)cc32)cc1 (centres undefined) 1.18%, COc1ccc(-c2noc(C3CC(=O)N(c4ccc5c(c4)OCCO5)C3)n2)c(OC)c1 (centres undefined) 0.396%, COc1cccc(NS(=O)(=O)c2cc(-c3cnc(C4CC4)o3)ccc2C)c1 -19.4%, O=C(O)CCCn1cc(NC(=O)COc2ccccc2)cn1 1.29%, CCN(C(=O)CCS(=O)(=O)c1cc(Br)cc2c1N(C(=O)C1CC1)CC2)c1cccc(C)c1 -17.7%, N/C(=N/OC(=O)c1ccccc1Cl)c1nonc1N 37.2%
